According to paper PMC9561125:
Residue numbers refer to the chain shown, from its start. No constants are given. Whether binding was seen depends on the method and setting. In cells and extracts the contact can be indirect. Some entries that bind do so weakly or less than the wild type. Sequences can lack the tags named with a protein.

Chains of the proteins cited; added tags and fusions are not shown. Residues count along the entry.
UniProt A5YKK6, residues 1-551: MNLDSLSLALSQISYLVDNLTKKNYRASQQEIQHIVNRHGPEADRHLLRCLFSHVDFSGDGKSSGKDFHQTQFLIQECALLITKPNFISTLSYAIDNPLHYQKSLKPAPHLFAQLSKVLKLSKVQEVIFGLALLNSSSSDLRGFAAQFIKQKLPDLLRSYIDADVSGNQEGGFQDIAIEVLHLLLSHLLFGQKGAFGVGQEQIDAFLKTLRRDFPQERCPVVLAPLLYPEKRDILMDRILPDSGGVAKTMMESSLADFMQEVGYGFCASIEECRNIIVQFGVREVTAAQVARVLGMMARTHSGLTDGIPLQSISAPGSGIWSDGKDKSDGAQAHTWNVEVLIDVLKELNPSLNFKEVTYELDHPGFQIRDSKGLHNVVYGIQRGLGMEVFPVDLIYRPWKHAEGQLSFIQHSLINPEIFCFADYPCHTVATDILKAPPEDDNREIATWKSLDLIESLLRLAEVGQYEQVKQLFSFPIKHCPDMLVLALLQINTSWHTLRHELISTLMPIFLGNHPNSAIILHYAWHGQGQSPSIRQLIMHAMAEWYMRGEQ
UniProt P60321: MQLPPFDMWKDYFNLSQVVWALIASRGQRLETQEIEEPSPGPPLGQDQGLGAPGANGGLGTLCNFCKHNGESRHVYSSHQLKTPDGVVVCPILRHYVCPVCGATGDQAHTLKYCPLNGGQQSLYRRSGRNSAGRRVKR

Legend:
[1] = biological target: T1, Myc-tagged mutated DND1 (E71A) (human) (UniProt Q8IYX4); assay: co-IP; HEK293T cells co-transfected; lysis buffer 50 mM Tris pH 7.5, 150 mM NaCl, 5 mM EDTA, 0.1% NP-40 with PMSF, protease inhibitors and MG132; anti-c-Myc beads, 4 °C, 2-3 h; six washes; blotted with Myc and mCherry or GFP antibodies
T1 sequence: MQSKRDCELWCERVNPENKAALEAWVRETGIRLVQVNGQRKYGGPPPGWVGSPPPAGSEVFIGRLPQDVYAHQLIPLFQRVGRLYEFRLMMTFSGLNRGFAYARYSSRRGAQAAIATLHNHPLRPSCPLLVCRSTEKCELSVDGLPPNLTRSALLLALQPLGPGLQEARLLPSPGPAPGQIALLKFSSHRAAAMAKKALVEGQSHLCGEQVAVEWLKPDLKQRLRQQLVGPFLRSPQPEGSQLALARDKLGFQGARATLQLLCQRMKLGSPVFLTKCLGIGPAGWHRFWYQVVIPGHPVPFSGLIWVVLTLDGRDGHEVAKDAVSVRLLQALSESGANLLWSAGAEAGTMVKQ

[2] = biological target: T2, Myc-tagged wild-type DND1 (human) (UniProt Q8IYX4); assay: as above
T2 sequence: T1 sequence with A71E

| binding [1] | binding [2] | Substance |
| --- | --- | --- |
| binds | binds | GFP-tagged CNOT1(1-551) (from UniProt A5YKK6 1-551) (domain or fragment) |
| – | binds | mCherry-tagged NANOS2 (from UniProt P60321 1-138) |
